According to patent publication US10889575B2, “4,4-diphenylpiperidine compounds or pharmaceutically acceptable salts thereof, pharmaceutical compositions and uses thereof” (Academy of Military Medical Sciences, priority 2017, dated 2021):
At least one compound was matched to its structure with a doubt left.

Test system: acetic acid writhing in mice
Assay: mouse acetic acid writhing model (analgesic effect)
Assay type: in vivo, Kunming mice
Details: intragastric 30 mg/kg
Text: 1. Experimental purposes: To determine the analgesic activity of Compound (4) hydrochloride and Compounds (1), (2), (3), (5) in a mouse acetic acid writhing model.
2. Experimental materials: Kunming mice (18-22 g), half male and half female, were provided by the Experimental Animal Center of the Academy of Military Medical Sciences.
The mice were weighed and labeled, 10 mice in each group (half male and half female), the mice were divided into 7 groups, including 5 experimental groups (using Compound (4) hydrochloride, Compound (1), (2), (3), (5), respectively), positive control group (using NMED-160) and negative control group (using normal saline). Among them, NMED-160 used in the positive control group was a selective small molecule N-type calcium ion channel blocker, which had entered the phase II clinical trial and could be synthesized by referring to document^[11], and the structural formula thereof is as follows: […]
The mice were intragastrically administered with drug (30 mg/kg). After 40 minutes, 0.4 mL of 0.6% (v/v) acetic acid was intraperitoneally injected. After 5 minutes, the number of mouse writhings in the subsequent 15 minutes was recorded. The inhibition rate of the drug on the acetic acid writhing in mice was calculated according to the following formula, and the analgesic effect of the drug was evaluated. […]

O=C(CN1CCC(c2ccccc2)(c2ccccc2)CC1)c1ccc2[nH]c(=O)oc2c1 [Compound (2), 6-(3-(4,4-diphenylpiperidinyl)-acetyl)benzoxazolin-2-one]
analgesic effect (in words): comparable to that of NMED-160
